PubChem BioAssay AID1259330 | Drosophila RNAi Screening Center – 2017

Purpose: 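Cellular ATP after silencing metal-related candidate genes, water instead of metal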
System: Drosophila S2R+ cells
Reagent: long dsRNA against Drosophila genes
Timing: 5 days (4 days of knock-down, then 1 day after water)
Treatment: water added as vehicle control after 4 days, 1 day before read-out; no manganese or zinc
Detection: 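Total ATP measured by CellTiter-Glo luciferase light, given as z-scores from the mean of duplicate plates; 4 days knock-down, then water for 1 day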
Direction: ATP z-score, pair 1: higher = more total ATP than other wells
Active means: 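a gene counts as active when its pair 1 ATP z-score is above 1.5 or below -1.5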
In all, the deposit lists 95 reagents; below is an unselected part. In the full data, 6 (6.3%) are marked active. 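Calls rest on pair 1 alone and pair 2 does not reproduce them; printed active calls all sit near 1.5 or higher.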 Unmarked entries are inactive. The numbers tell different reagents against one gene apart. A plus sign joins genes that one reagent is predicted to hit. Not all columns of the deposit are shown. Not stated in the record: the amount of reagent.

ATP z-score, pair 1, by target gene and reagent
Mvl: #1 0.309; #2 -0.137
iPLA2-VIA: #1 0.171; #2 -0.224
rl: #1 -1.22; #2 0.784
ZnT86D: #1 1.01; #2 0.733
CG6006: #1 0.863; #2 -0.321
alphaCOP: #1 1.51 (active); #2 1.37; #3 2.7 (active)
CG16890 + p38b: #1 1.5
Vha44: #1 -0.195; #2 -0.537
Sac1: #1 -0.812; #2 -0.341
Orct: #1 1.35; #2 -0.127
Pop2: #1 -0.881; #2 0.385
Lnk: #1 1.2; #2 -0.63
CG6126: #1 -0.559; #2 -0.387
ATP7: #1 -0.00457; #2 0.783
Nhe2: #1 -0.991; #2 -0.22
MFS10: #1 -0.452; #2 -0.485
Vha16-1: #1 -0.739; #2 -0.726
Sod2: #1 0.99; #2 -0.853
SERCA: #1 -0.258; #2 0.874

7 entries from above, reformatted:
{"Target gene":"ZnT86D","dsRNA no.":1,"ATP z-score, pair 1":1.01}
{"Target gene":"ZnT86D","dsRNA no.":2,"ATP z-score, pair 1":0.733}
{"Target gene":"CG6006","dsRNA no.":1,"ATP z-score, pair 1":0.863}
{"Target gene":"CG6006","dsRNA no.":2,"ATP z-score, pair 1":-0.321}
{"Target gene":"alphaCOP","dsRNA no.":1,"ATP z-score, pair 1":"1.51 (active)"}
{"Target gene":"alphaCOP","dsRNA no.":2,"ATP z-score, pair 1":1.37}
{"Target gene":"alphaCOP","dsRNA no.":3,"ATP z-score, pair 1":"2.7 (active)"}

Additional entries:
ATP z-score, pair 1, by target gene and reagent
Zip99C: #1 -0.22; #2 -1.3
p38c: #1 0.779; #2 0.00437
Cdc50: #1 0.825
Vha68-2: #1 -0.411; #2 -0.714
Catsup: #1 -0.0742; #2 1.43; #3 -0.396
Syx5: #1 2.15 (active); #2 2.63 (active)
SPoCk: #1 0.681; #2 -0.612
MFS14: #1 0.323; #2 0.434
stw: #1 -0.253; #2 -0.614
foi: #1 1.01; #2 0.427
